# Measured values taken from the supplement of paper PMC8728848.
# Some of the results follow.
# Tests used:
# Test in all cases: glycan array binding signal (z-score within array); higher = stronger binding
# Details in all cases: glycan notation: IUPAC condensed, linker removed
# [1] = target: Gal(a1-3)Gal(b1-4)GlcNAc(b1-2)Man
# Summary of the method: (§1)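 From the Consortium for Functional Glycomics database, 3228 arrays were curated, keeping only those whose protein sequence was available. Binding is given as a within-array Z-score averaged across arrays sharing a protein sequence and across linkers. Negative Z-scores can be read as non-binding.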
# [2] = target: Gal(a1-3)Gal(b1-4)GlcNAc(b1-2)Man(a1-3)[Gal(a1-3)Gal(b1-4)GlcNAc(b1-2)Man(a1-6)]Man(b1-4)GlcNAc(b1-4)GlcNAc
# Summary of the method: as §1
# [3] = target: Gal(a1-3)Gal(b1-4)GlcNAc(b1-3)GalNAc
# Summary of the method: as §1
# [4] = target: Gal(a1-3)Gal(b1-4)GlcNAc(b1-6)GalNAc
# Summary of the method: as §1
# [5] = target: Gal(a1-3)Gal(b1-4)[Fuc(a1-3)]GlcNAc
# Summary of the method: as §1
# [6] = target: Gal(a1-3)Gal(b1-4)[Fuc(a1-3)]GlcNAc(b1-2)Man(a1-3)[Gal(a1-3)Gal(b1-4)[Fuc(a1-3)]GlcNAc(b1-2)Man(a1-6)]Man(b1-4)GlcNAc(b1-4)GlcNAc
# Summary of the method: as §1
# [7] = target: Gal(a1-3)GalNAc
# Summary of the method: as §1
# [8] = target: Gal(a1-3)[Gal(a1-4)]Gal(b1-4)GlcNAc
# Summary of the method: as §1
# [9] = target: Gal(a1-4)Gal(b1-3)GlcNAc(b1-2)Man(a1-3)[Gal(a1-4)Gal(b1-3)GlcNAc(b1-2)Man(a1-6)]Man(b1-4)GlcNAc(b1-4)GlcNAc
# Summary of the method: as §1
# [10] = target: Gal(a1-4)Gal(b1-4)Glc
# Summary of the method: as §1
# [11] = target: Gal(a1-4)Gal(b1-4)GlcNAc
# Summary of the method: as §1
# [12] = target: Gal(a1-4)Gal(b1-4)GlcNAc(b1-2)Man(a1-3)[Gal(a1-4)Gal(b1-4)GlcNAc(b1-2)Man(a1-6)]Man(b1-4)GlcNAc(b1-4)GlcNAc
# Summary of the method: as §1
# [13] = target: Gal(a1-4)Gal(b1-4)GlcNAc(b1-3)Gal(b1-4)Glc
# Summary of the method: as §1
# [14] = target: Gal(a1-4)GlcNAc
# Summary of the method: as §1
# [15] = target: Gal(a1-6)Glc
# Summary of the method: as §1
# [16] = target: Gal(b1-2)Gal
# Summary of the method: as §1
# [17] = target: Gal(b1-3)Gal
# Summary of the method: as §1
# [18] = target: Gal(b1-3)Gal(b1-4)GlcNAc
# Summary of the method: as §1
# [19] = target: Gal(b1-3)GalNAc
# Summary of the method: as §1
# [20] = target: Gal(b1-3)GalNAc(a1-3)[Fuc(a1-2)]Gal(b1-4)Glc
# Summary of the method: as §1
# [21] = target: Gal(b1-3)GalNAc(a1-3)[Fuc(a1-2)]Gal(b1-4)GlcNAc
# Summary of the method: as §1
# [22] = target: Gal(b1-3)GalNAc(b1-3)Gal
# Summary of the method: as §1
# [23] = target: Gal(b1-3)GalNAc(b1-3)Gal(a1-4)Gal(b1-4)Glc
# Summary of the method: as §1
# [24] = target: Gal(b1-3)GalNAc(b1-4)Gal(b1-4)Glc
# Summary of the method: as §1
# [25] = target: Gal(b1-3)GalNAc(b1-4)[Neu5Ac(a2-3)]Gal(b1-4)Glc
# Summary of the method: as §1
# [26] = target: Gal(b1-3)GlcNAc
# Summary of the method: as §1
# [27] = target: Gal(b1-3)GlcNAc(a1-3)Gal(b1-4)GlcNAc
# Summary of the method: as §1
# [28] = target: Gal(b1-3)GlcNAc(a1-6)Gal(b1-4)GlcNAc
# Summary of the method: as §1
# [29] = target: Gal(b1-3)GlcNAc(b1-2)Man
# Summary of the method: as §1
# [30] = target: Gal(b1-3)GlcNAc(b1-2)Man(a1-3)[Gal(b1-3)GlcNAc(b1-2)Man(a1-6)]Man(b1-4)GlcNAc(b1-4)GlcNAc
# Summary of the method: as §1
# [31] = target: Gal(b1-3)GlcNAc(b1-2)Man(a1-3)[Gal(b1-3)GlcNAc(b1-2)Man(a1-6)]Man(b1-4)GlcNAc(b1-4)[Fuc(a1-6)]GlcNAc
# Summary of the method: as §1
# [32] = target: Gal(b1-3)GlcNAc(b1-2)Man(a1-3)[GlcNAc(b1-4)][Gal(b1-3)GlcNAc(b1-2)Man(a1-6)]Man(b1-4)GlcNAc(b1-4)GlcNAc
# Summary of the method: as §1
# [33] = target: Gal(b1-3)GlcNAc(b1-2)[Gal(b1-3)GlcNAc(b1-6)]Man(a1-6)[Gal(b1-3)GlcNAc(b1-2)Man(a1-3)]Man(b1-4)GlcNAc(b1-4)GlcNAc
# Summary of the method: as §1
# [34] = target: Gal(b1-3)GlcNAc(b1-3)Gal(b1-3)GlcNAc
# Summary of the method: as §1
# [35] = target: Gal(b1-3)GlcNAc(b1-3)Gal(b1-4)Glc
# Summary of the method: as §1
# [36] = target: Gal(b1-3)GlcNAc(b1-3)Gal(b1-4)GlcNAc
# Summary of the method: as §1
# [37] = target: Gal(b1-3)GlcNAc(b1-3)Gal(b1-4)GlcNAc(b1-2)Man(a1-3)[Gal(b1-3)GlcNAc(b1-3)Gal(b1-4)GlcNAc(b1-2)Man(a1-6)]Man(b1-4)GlcNAc(b1-4)GlcNAc
# Summary of the method: as §1
# [38] = target: Gal(b1-3)GlcNAc(b1-3)Gal(b1-4)GlcNAc(b1-2)[Gal(b1-3)GlcNAc(b1-3)Gal(b1-4)GlcNAc(b1-6)]Man(a1-6)[Gal(b1-3)GlcNAc(b1-3)Gal(b1-4)GlcNAc(b1-2)Man(a1-3)]Man(b1-4)GlcNAc(b1-4)[Fuc(a1-6)]GlcNAc
# Summary of the method: as §1
# [39] = target: Gal(b1-3)GlcNAc(b1-3)Gal(b1-4)GlcNAc(b1-3)Gal(b1-4)GlcNAc(b1-2)[Gal(b1-3)GlcNAc(b1-3)Gal(b1-4)GlcNAc(b1-3)Gal(b1-4)GlcNAc(b1-6)]Man(a1-6)[Gal(b1-3)GlcNAc(b1-3)Gal(b1-4)GlcNAc(b1-3)Gal(b1-4)GlcNAc(b1-2)Man(a1-3)]Man(b1-4)GlcNAc(b1-4)[Fuc(a1-6)]GlcNAc
# Summary of the method: as §1
# [40] = target: Gal(b1-3)GlcNAc(b1-3)Gal(b1-4)GlcNAc(b1-6)[Gal(b1-3)GlcNAc(b1-3)]Gal(b1-4)Glc
# Summary of the method: as §1
# [41] = target: Gal(b1-3)GlcNAc(b1-3)Gal(b1-4)[Fuc(a1-3)]GlcNAc
# Summary of the method: as §1
# [42] = target: Gal(b1-3)GlcNAc(b1-3)Gal(b1-4)[Fuc(a1-3)]GlcNAc(b1-6)[Gal(b1-3)GlcNAc(b1-3)]Gal(b1-4)Glc
# Summary of the method: as §1
# [43] = target: Gal(b1-3)GlcNAc(b1-3)GalNAc
# Summary of the method: as §1
# [44] = target: Gal(b1-3)GlcNAc(b1-6)Gal(b1-4)GlcNAc
# Summary of the method: as §1
# [45] = target: Gal(b1-3)GlcNAc(b1-6)GalNAc
# Summary of the method: as §1
binder,measurement,setting,value
Pwp7 (Candida glabrata) (protein) MGSSHHHHHHSSGLVPRGSHMASKNPVDFPNLCQYPNLDGAVAGFDTEIYNADPSILINFSLWPILQFPKEWHKTIGRAITTQTNFKLPASDTTLFGVSIPTQNILIEFRGYFIPPKSGTYTFALYLTDDGSAMFLGNDAAFPCGNITSWSNPTNDQVSVSDYDPKKKTLTVYMVAGVAYPLRIAYYNREKGGSLTASFVDPDGLTHSDWNGYIWTLPSCDNCKYS,glycan array binding signal (z-score),[1],-0.085
same,glycan array binding signal (z-score),[2],0.288
same,glycan array binding signal (z-score),[3],0.654
same,glycan array binding signal (z-score),[4],0.966
same,glycan array binding signal (z-score),[5],-0.615
same,glycan array binding signal (z-score),[6],1.08
same,glycan array binding signal (z-score),[7],-0.395
same,glycan array binding signal (z-score),[8],-0.721
same,glycan array binding signal (z-score),[9],0.737
same,glycan array binding signal (z-score),[10],0.252
same,glycan array binding signal (z-score),[11],-1.37
same,glycan array binding signal (z-score),[12],-0.09
same,glycan array binding signal (z-score),[13],0.097
same,glycan array binding signal (z-score),[14],-1
same,glycan array binding signal (z-score),[15],-0.016
same,glycan array binding signal (z-score),[16],-0.065
same,glycan array binding signal (z-score),[17],-0.786
same,glycan array binding signal (z-score),[18],-0.059
same,glycan array binding signal (z-score),[19],-0.519
same,glycan array binding signal (z-score),[20],0.848
same,glycan array binding signal (z-score),[21],-0.35
same,glycan array binding signal (z-score),[22],0.05
same,glycan array binding signal (z-score),[23],-0.233
same,glycan array binding signal (z-score),[24],-0.712
same,glycan array binding signal (z-score),[25],-0.475
same,glycan array binding signal (z-score),[26],-0.99
same,glycan array binding signal (z-score),[27],-0.72
same,glycan array binding signal (z-score),[28],-1.04
same,glycan array binding signal (z-score),[29],-1.75
same,glycan array binding signal (z-score),[30],-0.137
same,glycan array binding signal (z-score),[31],-0.097
same,glycan array binding signal (z-score),[32],0.548
same,glycan array binding signal (z-score),[33],-0.145
same,glycan array binding signal (z-score),[34],0.566
same,glycan array binding signal (z-score),[35],-0.182
same,glycan array binding signal (z-score),[36],0.865
same,glycan array binding signal (z-score),[37],0.525
same,glycan array binding signal (z-score),[38],1.75
same,glycan array binding signal (z-score),[39],1.14
same,glycan array binding signal (z-score),[40],0.116
same,glycan array binding signal (z-score),[41],-0.155
same,glycan array binding signal (z-score),[42],-0.208
same,glycan array binding signal (z-score),[43],-0.469
same,glycan array binding signal (z-score),[44],-1.71
same,glycan array binding signal (z-score),[45],-0.026

# Pulled one by one from above (two):
binder,measurement,setting,value
Pwp7 (Candida glabrata) (protein) MGSSHHHHHHSSGLVPRGSHMASKNPVDFPNLCQYPNLDGAVAGFDTEIYNADPSILINFSLWPILQFPKEWHKTIGRAITTQTNFKLPASDTTLFGVSIPTQNILIEFRGYFIPPKSGTYTFALYLTDDGSAMFLGNDAAFPCGNITSWSNPTNDQVSVSDYDPKKKTLTVYMVAGVAYPLRIAYYNREKGGSLTASFVDPDGLTHSDWNGYIWTLPSCDNCKYS,glycan array binding signal (z-score),[14],-1
same,glycan array binding signal (z-score),[30],-0.137
